# Measured values as given in PubChem BioAssay AID1259354 (Paczesny and Yang Labs, IUPUI and University of Michigan, 2018).
# Chains of the proteins cited; added tags and fusions are not shown. Lines headed by an entry give the natural chain unless they say otherwise; changes in a name come on top.
# UniProt Q01638: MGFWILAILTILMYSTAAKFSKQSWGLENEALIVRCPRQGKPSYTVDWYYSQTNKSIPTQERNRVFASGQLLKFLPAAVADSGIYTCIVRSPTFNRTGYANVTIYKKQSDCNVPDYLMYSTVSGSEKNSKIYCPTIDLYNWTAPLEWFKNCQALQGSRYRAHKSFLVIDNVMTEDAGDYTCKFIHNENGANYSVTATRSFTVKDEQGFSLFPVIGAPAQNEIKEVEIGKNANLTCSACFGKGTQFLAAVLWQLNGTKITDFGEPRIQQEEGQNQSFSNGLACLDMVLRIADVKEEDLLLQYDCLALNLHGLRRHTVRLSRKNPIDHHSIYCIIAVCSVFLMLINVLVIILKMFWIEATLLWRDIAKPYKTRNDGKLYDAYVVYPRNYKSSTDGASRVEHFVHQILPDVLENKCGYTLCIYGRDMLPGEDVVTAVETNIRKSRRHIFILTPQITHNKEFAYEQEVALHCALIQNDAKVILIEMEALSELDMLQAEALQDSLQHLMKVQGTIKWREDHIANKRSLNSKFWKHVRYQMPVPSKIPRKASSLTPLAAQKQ
# In all, about 78,000 compounds went through this assay and about 1,800 (2.3%) were called active. Inconclusive means that the source gave no clear call. Such entries were picked first, then a sample of the others. Rule as the data show it: active = inhibition above about 30%; inconclusive = mostly about 10% to 28%; inactive = weaker than that.
# Biological target: Interleukin-1 receptor-like 1 (Homo sapiens) (UniProt Q01638)
# Experiment: blocks human ST2 binding to IL-33, primary screen, biochemical, AlphaLISA (AID 1259354)
# Conditions: AlphaLISA ST2-Fc/biotin-IL-33 interaction, 1 h; at 17 µM, stronger effect = higher value
row,SMILES,inhibition
1,C=C1C2(C(=O)N3CCC(COC)C3)CC[C@@H](C2)C1(C)C (stereo not given in full),inconclusive: 10%
2,COc1cc2c(cc1OC)CN(Cc1ncccc1C(=O)O)CC2,inconclusive: 10%
3,COc1c(C)c(OCC(O)C(C)(C)O)cc(CO)c1CO (stereo not given),inconclusive: 12%
4,Cc1ccc(N=C2c3ccccc3C(=O)C2[N+](=O)[O-])c(C)c1 (stereo not given),inconclusive: 19%
5,O=C(CNS(=O)(=O)c1cccs1)NC1CCCc2ccccc21 (stereo not given),inactive
6,O=C(/C=C/c1ccccn1)N(CC1CCN(C2Cc3ccccc3C2)CC1)CC1CCCO1 (stereo not given),inactive
7,O=S(=O)(c1cccnc1)N1CCn2c1nc1ccccc12,inactive
8,COc1cccc(-c2cc(C(=O)Nc3sc(C)c(C)c3C(N)=O)c3ccccc3n2)c1,inconclusive: 24%
9,CC1CC2=C(CC3C(C)(CCC4(O)C(C)(C)C=CC(=O)C34C)O2)C(=O)O1 (stereo not given),inactive
10,Cc1ccc(C2CC(=O)C3=C(C2)Nc2ccccc2NC3c2coc3ccc(C)cc3c2=O)cc1 (stereo not given),inconclusive: 10%
11,CCOc1ccc(NC(=O)CSC2=NS(=O)(=O)c3ccccc32)cc1,inactive
12,O=C(CSCc1ccccc1Cl)NCCSc1ccccn1,inactive
13,Cc1c(C(=O)NCc2ccco2)oc2ccc(S(=O)(=O)N(C)C3CCCCC3)cc12,inactive
14,CCn1c(CN2CC[C@@H](c3sccc3C)[C@H](O)C2)nc2ccccc21,inconclusive: 10%
15,O=C(c1cc2ccc(Br)cc2oc1=O)N1CCSC1c1cccc([N+](=O)[O-])c1 (stereo not given),inconclusive: 24%
16,O=C(CNC(=O)C1CCCCC1)NCc1ccco1,inconclusive: 11%
17,Cc1ccc(-c2csc(/C(C#N)=C/c3ccco3)n2)cc1,active: 63%
18,Cc1cc(C)c(S(=O)(=O)N2CCC(n3c(C)nc4cccnc43)CC2)c(C)c1,inconclusive: 14%
19,Cn1cnnc1SCC(=O)Nc1ccc(OC(F)(F)F)cc1,inconclusive: 10%
20,Cc1ccnc(N2CCN(C(=O)CSc3nc4ccccc4nc3N3CCCCC3)CC2)c1,inconclusive: 12%
21,Nc1ncnc(N2CCN(CCO)CC2)c1[N+](=O)[O-],inactive
22,COc1cc2c(cc1O)CC[C@@H]1[C@@H]2CC[C@]2(C)[C@@H](O)CC[C@@H]12,inconclusive: 23%
23,COc1ccc(OC)c(-c2cc(Cl)c3c(c2)CC(CNC(=O)c2cccnc2C)O3)c1 (stereo not given),inconclusive: 17%
24,COc1ccc(Cl)cc1C(=O)Nc1sc2c(c1C(N)=O)CCC2,inconclusive: 19%

# Two neighbouring records already listed:
row,SMILES,inhibition
9,CC1CC2=C(CC3C(C)(CCC4(O)C(C)(C)C=CC(=O)C34C)O2)C(=O)O1 (stereo not given),inactive
10,Cc1ccc(C2CC(=O)C3=C(C2)Nc2ccccc2NC3c2coc3ccc(C)cc3c2=O)cc1 (stereo not given),inconclusive: 10%

# Additional entries.

row,SMILES,inhibition
1,CCC(=O)N1CCc2cc(Br)cc(S(=O)(=O)Nc3cccc(SC)c3)c21,inconclusive: 11%
2,COC(=O)[C@@H]1C[C@@H](NC(=O)c2cc(C)nc(C)n2)CN1C,inconclusive: 18%
3,COc1ccccc1N1CCN(Cc2ccc(OC)c(C)c2OC)CC1,inconclusive: 24%
4,c1ccc(-c2cc3c(ncn4nnnc34)s2)cc1,inactive
5,O=C(c1cccc(F)c1)N1CCN(c2ccc([N+](=O)[O-])c(NCc3ccccc3)c2)CC1,active: 36%
6,Cc1[nH]c2c(CNC(=O)CCN3CCCO3)cc(F)cc2c1C,inconclusive: 12%
7,Cc1nc2ccccc2n1Cc1ccccc1Cl,inactive
8,CC(Oc1ccc2oc(-c3ccccc3)c(C(=O)O)c2c1)C(=O)O (stereo not given),inconclusive: 10%
9,CS(=O)(=O)NC1CCN(Cc2cc3n(n2)CCCNC3)CC1,inconclusive: 26%
10,Cc1nn(-c2ccccc2)c(C)c1Sc1ccccc1[N+](=O)[O-],inconclusive: 20%
11,CCOC(=O)CN1N=C(c2ccc(C)cc2)CCC1=O,inconclusive: 11%
12,O=C(CSc1nc2c([nH]c3ccccc32)c(=O)n1-c1ccc(Cl)cc1)N1CCOCC1,inconclusive: 12%
13,CC1CCCC(C)N1CCNC(=O)c1cccn2c(=O)c3c4c(sc3nc12)CCCC4 (stereo not given),inconclusive: 12%
14,COc1ccc(-c2c(C#N)c(SCC(N)=O)nc(C)c2C(=O)Nc2ccccc2)cc1,inconclusive: 10%
15,CN(Cc1ccnc2ccccc12)C(=O)CCN1CCCO1,inconclusive: 16%
16,Clc1cccc(CN2CCOCC2)c1Cl,inactive
17,CCc1ccccc1C(=O)N1CCC(Cc2cccc(C(=O)O)c2)CC1,inconclusive: 10%
18,COc1cccc(OCC(O)CN2CCC(CN3C(=O)c4cccc5cccc(c45)C3=O)CC2)c1 (stereo not given),inconclusive: 18%
19,COc1ccccc1-c1coc2cc(OC(=O)C(C)C)ccc2c1=O,inactive
20,Cn1nccc1C(=O)Nc1ccc(Cl)cc1Cl,inconclusive: 21%
21,COc1ccc(Cc2noc(CN3CCN(Cc4cccs4)CC3)n2)cc1OC,inactive
22,COc1cccc(N2C(=O)[C@H]3C4c5ccccc5C(CO)(c5ccccc54)[C@H]3C2=O)c1,inactive
23,Cc1ccc(CN(C)C(=O)Cc2nc(-c3cccnc3)n[nH]2)o1,inconclusive: 14%
24,COc1ccc(NC(=O)CSc2ccccn2)c([N+](=O)[O-])c1,inconclusive: 18%

# Part of the list above in order of formula weight, rising:
row,SMILES,inhibition
1,C=C1C2(C(=O)N3CCC(COC)C3)CC[C@@H](C2)C1(C)C (stereo not given in full),inconclusive: 10%
2,COc1cc2c(cc1OC)CN(Cc1ncccc1C(=O)O)CC2,inconclusive: 10%
5,O=C(c1cccc(F)c1)N1CCN(c2ccc([N+](=O)[O-])c(NCc3ccccc3)c2)CC1,active: 36%
23,COc1ccc(OC)c(-c2cc(Cl)c3c(c2)CC(CNC(=O)c2cccnc2C)O3)c1 (stereo not given),inconclusive: 17%
15,O=C(c1cc2ccc(Br)cc2oc1=O)N1CCSC1c1cccc([N+](=O)[O-])c1 (stereo not given),inconclusive: 24%

# Next part

row,SMILES,inhibition
1,Cc1cc(C)c(NC(=O)Cn2nnc(-c3ccccc3)n2)c(C)c1,inconclusive: 11%
2,OCc1ccccc1-c1nccc(CCC(F)(F)F)n1,inconclusive: 15%
3,Cc1c(N=Cc2ccc(Br)o2)c(=O)n(-c2ccccc2)n1C,inactive
4,Cc1cc(-c2nc(-c3cccnc3)no2)ccc1[N+](=O)[O-],inconclusive: 23%
5,CC1CCCCN1CCNC(=O)c1ccc2c(Cl)c3c(nc2c1)CCCC3 (stereo not given),inconclusive: 10%
6,CCC1(C)Cc2c(sc3c2c(=O)n(C)c2nnc(SCc4ccc5c(c4)OCO5)n32)CO1 (stereo not given),inconclusive: 19%
7,CC1=NN(c2ccc(Cl)c(Cl)c2)C(=O)/C1=C/c1ccc(N(C)C)cc1,inconclusive: 12%
8,Cc1ccc(Br)cc1NCN1C(=O)c2ccc(Br)cc2C1=O,inconclusive: 26%
9,Fc1ccc(N2CCN(C3CCCN(Cc4cccn4-c4ccccn4)C3)CC2)cc1 (stereo not given),inconclusive: 16%
10,CCOc1ccc(C(=O)Nc2ccc(C)c(OCc3cc(=O)n4cccc(C)c4n3)c2)cc1,inactive
11,Cc1sc(-n2cccc2)c(C(=O)N2CCN3C(=O)CNC(=O)C3C2)c1C (stereo not given),inconclusive: 11%
12,O=c1cc(CO)oc(C(Nc2ccccn2)c2ccc(F)cc2)c1O (stereo not given),inconclusive: 19%
13,CCOC(=O)c1c(CSC(=N)N)n(C)c2cc(Br)c(OC(C)=O)cc12,inconclusive: 15%
14,CSc1nc2ccccc2c2nc3ccccc3n12,inconclusive: 14%
15,O=c1ccn(-c2nc(-c3ccccc3)sc2-c2ccccc2)c(=O)[nH]1,inconclusive: 16%
16,CC(=O)Nc1ccccc1C(=O)c1ccccc1C(=O)O,inactive
17,COc1ccc(/C=C2/SC(=Nc3ccccc3)NC2=O)c(OC)c1OC,active: 45%
18,Cc1nc(C2CCNCC2)cc(N2[C@@H]3CC[C@H]2CC(O)C3)n1 (stereo not given in full),inactive
19,Cc1nnc(SCCCNC(=O)C2CCS(=O)(=O)CC2)s1,inactive
20,CCN(CC)c1ccc2cc(C(=O)Nc3ccccc3C)c(=O)oc2c1,inconclusive: 14%
21,O=C(O)C1C2C=CC(C2)C1C(=O)N1CCN(c2ccccc2)CC1 (stereo not given),inconclusive: 13%
22,COc1cccc(N2CCN(C(=O)c3cccn4c(=O)c5c(C)c(C)sc5nc34)CC2)c1,inconclusive: 15%
23,CCn1nc(C)c(NC(=O)CN2CCC2c2cccc(OC)c2)c1C (stereo not given),inactive
24,CCC(C)Sc1nc2c(c(=O)n1-c1ccc(C)cc1)SCC2 (stereo not given),inconclusive: 14%

row,SMILES,inhibition
1,COc1ccc(-n2ncc3c(N4CCN(c5ccccc5F)CC4)ncnc32)cc1,inactive
2,COC(=O)C1=C(C)NC(C)=C(C(=O)OC)C1c1ccccc1[N+](=O)[O-],inconclusive: 27%
3,O=[N+]([O-])c1ccc(O)c(CN2CCCCCCC2)c1,inactive
4,O=C(O)c1cc2n(n1)CCCN(C(=O)c1c(F)ccc(F)c1F)C2,inconclusive: 13%
5,CCOc1ccc2c(=O)c(Oc3ccccc3Br)coc2c1,inconclusive: 20%
6,Cc1cccc(OCC(=O)O/N=C(/N)c2ccncc2)c1C,inactive
7,CCc1ccc(N2C(=O)C3[C@H](C2=O)C2c4ccccc4C3(C(=O)O)c3ccccc32)cc1 (stereo not given in full),inconclusive: 24%
8,Clc1cccc(N2CCN(C3CCCN(Cc4ccc5nsnc5c4)C3)CC2)c1 (stereo not given),inconclusive: 11%
9,O=[N+]([O-])c1ccc(-c2cnc(-c3ccccc3)nc2)cc1,inactive
10,O=C(O)CNS(=O)(=O)c1ccc2c(c1)OCCO2,inactive
11,CCn1c(CC2CCN(S(=O)(=O)c3cccs3)CC2)nn(C)c1=O,inactive
12,Cc1nn(C)c(C)c1-c1cc(C(=O)N2C[C@@H]3[C@H](C2)[C@H]2CC[C@@H]3O2)n(C)n1,inconclusive: 16%
13,COc1ncc(-c2nccn2C(C)Cc2ccsc2)cn1 (stereo not given),inactive
14,CC(C)Cc1cc(CNc2nc(-c3cccnc3)nc3c2CNC3)no1,inconclusive: 13%
15,COc1ccccc1N1CCN(S(=O)(=O)c2cccc3nonc23)CC1,inactive
16,Cc1ccccc1CN1CCC(CNC(=O)c2cccn(C)c2=O)C1 (stereo not given),inactive
17,O=C(O)CS(=O)(=O)c1ccc(-c2ccc(S(=O)(=O)CC(=O)O)cc2)cc1,inactive
18,CCn1cc(C(=O)NC2CCCCC2C)c(=O)c2cc(S(=O)(=O)N3CCCCCC3)ccc21 (stereo not given),inconclusive: 12%
19,Cc1nc2ncccn2c1C(=O)NCC1(O)CCNC1 (stereo not given),inconclusive: 17%
20,O=C(NCC1CCCN(Cc2nc3ccccc3s2)C1)c1cc2ccccc2[nH]1 (stereo not given),inactive
21,CNc1cc(-c2nc(N3CCCC3)nc(C)c2C)c2cc[nH]c2n1,inconclusive: 22%
22,Cn1cc(CN2CCN(C3CCS(=O)(=O)C3)CC2)c(-c2cccc(Cl)c2)n1 (stereo not given),inactive
23,O=C(Nc1ccc(S(=O)(=O)N2CCCCC2)cc1)C(F)(F)F,inactive
